Measured values from PMC8847585, “Induction of senescence-associated secretory phenotype underlies the therapeutic efficacy of PRC2 inhibition in cancer” (Cell Death & Disease, 2022).

Tested on: H3K27me3 in HeLa cell
Test: Inhibition of cellular H3K27me3 (western blot quantification)
Format: cell-based
Settings: Homo sapiens, 72 hr of treatment, n = 3
Procedure: Cells were washed once with cold PBS and lysed by RIPA lysis buffer and incubated with 4 × SDS loading buffer at 95 °C for 10 min. Whole cell proteins were used for electrophoresis and then transferred to a nitrocellulose membrane. The membrane was blocked with Tris buffered saline containing 0.075% Tween-20 and 5% non-fat milk. Then the membranes were incubated with primary antibodies overnight at 4 °C. The next day, membranes were incubated with secondary antibodies for 1 h at room temperature.

## CCN(c1cc(-c2ccc(CN3CCOCC3)cc2)cc(C(=O)NCc2c(C)cc(C)[nH]c2=O)c1C)C1CCOCC1 [EPZ6438]
  IC50: 22.5 nM
